Results are given in words; binding and its absence hold for the method and conditions named. Binding can be weak; no strength is given.
Target: purified human alpha v beta 3 integrin (biotinylated) (human)
Experiment: ORIGEN electrochemiluminescence; antibody dilutions with biotinylated purified integrin, captured on streptavidin beads

B1: murine anti-integrin antibody B9 (antibody, V domains shown)
VH: QVQLQQSGAELMKPGASVKISCKATGYTFSSYWIEWVKQRPGHGLEWIGEILPRSGNTNYNEKFKGKATFTAETSSNTAYMQLSSLTPEDSAVYYCSSRGVRGSMDYWGQGTSVTVSS
VL: DIQMTQTTSSLSASLGDRVTITCRSSQDISNFLNWYQQKPDGTVKLLIYYTSTLHSGVPSRFSGSGSGTDYSLTISNLEQEDIATYFCQQGNTLPWTFGGGTNLEIKR
  binding: binds
